The record followed here is article PMC8219694.

The chains behind the UniProt entries cited, without tags or fusion partners.
UniProt Q92830: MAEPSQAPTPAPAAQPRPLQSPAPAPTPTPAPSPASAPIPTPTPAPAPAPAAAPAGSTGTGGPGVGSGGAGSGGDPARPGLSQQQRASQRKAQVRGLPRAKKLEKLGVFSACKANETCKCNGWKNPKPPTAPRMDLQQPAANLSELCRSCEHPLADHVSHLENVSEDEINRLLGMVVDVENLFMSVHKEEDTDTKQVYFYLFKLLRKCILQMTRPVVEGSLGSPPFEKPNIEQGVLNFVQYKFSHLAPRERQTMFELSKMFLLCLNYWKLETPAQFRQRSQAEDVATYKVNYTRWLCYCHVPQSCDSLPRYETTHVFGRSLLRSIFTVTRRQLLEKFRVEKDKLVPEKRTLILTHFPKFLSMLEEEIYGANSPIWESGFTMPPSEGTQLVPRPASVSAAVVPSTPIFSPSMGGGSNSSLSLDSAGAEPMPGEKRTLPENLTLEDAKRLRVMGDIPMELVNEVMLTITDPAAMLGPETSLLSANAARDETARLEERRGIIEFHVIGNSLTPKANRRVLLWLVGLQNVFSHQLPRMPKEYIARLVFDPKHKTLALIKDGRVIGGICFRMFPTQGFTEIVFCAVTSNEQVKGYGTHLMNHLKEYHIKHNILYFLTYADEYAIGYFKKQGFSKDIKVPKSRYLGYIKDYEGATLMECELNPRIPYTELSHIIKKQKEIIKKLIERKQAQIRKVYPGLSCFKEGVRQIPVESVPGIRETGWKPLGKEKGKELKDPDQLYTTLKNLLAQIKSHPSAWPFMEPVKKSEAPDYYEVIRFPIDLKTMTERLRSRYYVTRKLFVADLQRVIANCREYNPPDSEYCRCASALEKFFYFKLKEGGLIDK

Results are given in words; binding and its absence hold for the method and conditions named. In cells and extracts the contact can be indirect. Some entries that bind do so weakly or less than the wild type.

For this assay, the target named is T1, Peroxisome proliferator-activated receptor gamma coactivator 1-alpha (human (endogenous in PANC-1 and SW1990)) (UniProt Q9UBK2).
T1 sequence: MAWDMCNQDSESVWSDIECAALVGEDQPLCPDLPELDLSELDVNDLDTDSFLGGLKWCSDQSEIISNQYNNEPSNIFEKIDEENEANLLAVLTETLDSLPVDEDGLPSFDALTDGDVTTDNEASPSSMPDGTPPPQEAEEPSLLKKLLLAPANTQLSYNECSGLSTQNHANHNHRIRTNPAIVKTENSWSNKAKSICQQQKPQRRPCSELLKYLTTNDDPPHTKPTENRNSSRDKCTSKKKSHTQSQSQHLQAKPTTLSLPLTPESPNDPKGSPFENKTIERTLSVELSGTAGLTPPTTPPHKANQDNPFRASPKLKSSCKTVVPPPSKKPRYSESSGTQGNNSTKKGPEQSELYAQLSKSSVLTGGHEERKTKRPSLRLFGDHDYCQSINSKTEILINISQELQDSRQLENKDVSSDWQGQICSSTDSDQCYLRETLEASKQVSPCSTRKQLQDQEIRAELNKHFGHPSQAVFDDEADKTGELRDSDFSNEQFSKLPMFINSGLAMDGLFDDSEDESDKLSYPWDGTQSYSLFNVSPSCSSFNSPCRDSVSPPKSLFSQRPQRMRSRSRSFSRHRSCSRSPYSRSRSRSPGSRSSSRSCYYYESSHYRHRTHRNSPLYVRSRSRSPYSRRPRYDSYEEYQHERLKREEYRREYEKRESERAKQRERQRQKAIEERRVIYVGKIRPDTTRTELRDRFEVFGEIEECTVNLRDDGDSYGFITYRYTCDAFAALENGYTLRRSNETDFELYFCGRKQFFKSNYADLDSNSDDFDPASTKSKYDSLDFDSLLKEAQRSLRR
The assay is described as follows: co-IP; lysates of PDAC cells (PANC-1, SW1990) in IP lysis buffer with 5 mM nicotinamide and 5 μM trichostatin A; antibodies cross-linked to Protein A/G magnetic beads, 1 h at room temperature; reciprocal IP for PGC-1α and SIRT1; cells with LINC00842 overexpression or silencing, RNase A or RNase III treatment, 5 or 25 mM glucose for 4 h.

Regarding “PGC-1α acetyltransferase KAT2A (also named GCN5) (from UniProt Q92830 1-837) (enzyme)”, the binding result is given as “binds”.
